In this test the test system is NHE-3. Description: NHE-3 inhibitory effect in PS120 cell line expressing NHE-3.

Some entries of the source have several records that differ or are many. The list is limited to them. The source may hold further records. Values given together appear to be repeats (runs, samples, wells or individuals).

On to `CS(=O)(=O)O.N=C(N)NC(=O)c1ccc(-c2ccccc2)o1` [Example 4, [5-phenylfuran-2-ylcarbonyl]guanidine methanesulfonate], for which the “NHE-3 inhibitory effect, Inhibition at 30 μM” value (PS120 cells expressing NHE-3, tested form: methanesulfonate, methanesulfonate) was “no NHE-3 inhibitory effect at all and 0%”.

For `N=C(N)NC(=O)c1ccc(-c2cccc(Cl)c2)o1` [Example 6, [5-(3-chlorophenyl)furan-2-ylcarbonyl]guanidine], the “NHE-3 inhibitory effect, Inhibition at 30 μM” value (PS120 cells expressing NHE-3) was “no NHE-3 inhibitory effect at all and 0%”.

The values above are taken from patent publication US7351843B2, “Furancarbonylguanidine derivatives, their preparation and pharmaceutical compositions containing them” (Korea Research Institute of Chemical Technology, priority 2003, dated 2008).
